Measurements: the supplement of paper PMC5949888
Most values lie at the floor of the assay. Slopes are relative: functional sequences can read slightly below zero.

The substances below were run on Saccharomyces cerevisiae PS128 hsf1 delta, HSF1(1-493) fusion (assay: growth estimate (transactivation domain function in HSF1 fusion, heat-shock survival) (a.u. (slope of normalised read count over time)); higher = stronger growth at 37°C, i.e. more transactivation activity). Details: library: random library.
In the case of REATIEKGLFVRRCHDVVAM, the growth estimate is reported as < -0.25. In the case of TGMNKD, the growth estimate is reported as < -0.25. For RVGNG, the growth estimate was < -0.25. For LNGCINST, the growth estimate was < -0.25. With WKKVLKAIC the growth estimate was < -0.25. With SITFRRGLRSNEPPTTSSVD the growth estimate was < -0.25. In the case of RGAPRPA, the growth estimate is reported as < -0.25. In the case of RIRMSPEAAFLAS, the growth estimate is reported as < -0.25. For EGMYAA, the growth estimate was < -0.25. For RWTVTPGRIEVSAVSGFRQA, the growth estimate was < -0.25. GRRN was tested, and the growth estimate was < -0.25. AVRSK was tested, and the growth estimate was < -0.25. With PRASYQVLALVSAL the growth estimate was < -0.25. For SRFCTVRCRVSCKYKHWLSI, the growth estimate was < -0.25. With SYWLVAQDAVISGVMSSAVS the growth estimate was < -0.25. In the case of GCYVERR, the growth estimate is reported as < -0.25. With TKIYENNSAWLLQKLATQTH the growth estimate was < -0.25. For IESHIKGVRV, the growth estimate was < -0.25. For LACSKNARVCVVV, the growth estimate was < -0.25. RVGI was tested, and the growth estimate was < -0.25. With GCGANPVRKR the growth estimate was < -0.25. With SGGCCIVGVEIHFPRRV the growth estimate was < -0.25. In the case of AYTCRRMLRGESSGIVSLTV, the growth estimate is reported as < -0.25. ASANEAYAWGFSGDNETTRK was tested, and the growth estimate was < -0.25. In the case of RSWENQDL, the growth estimate is reported as < -0.25. With PLHRGGMSLRRN the growth estimate was < -0.25. RTRGLDPSGKRILCIPGPIP was tested, and the growth estimate was < -0.25. For ESQVRCHLKTASLIPNDS, the growth estimate was < -0.25. With SVTRRRPRLRPAQLS the growth estimate was -0.241. For LCESGAGYNDEP, the growth estimate was < -0.25. With TALLVTGIVDRYWCLGPFTG the growth estimate was < -0.25. LLVPSGQCHGFRRLSTSRQV was tested, and the growth estimate was < -0.25. For LSGSYSSVPCLQVVDGKLLV, the growth estimate was < -0.25. For LGCIMEQYARMLLIVVRRRT, the growth estimate was < -0.25. KLSTSVSGHLRAAHFTNPAL was tested, and the growth estimate was < -0.25. IDNGLWAMRVPDTNPSTWPT was tested, and the growth estimate was < -0.25. DANSESSFTALIRRRSACAR was tested, and the growth estimate was < -0.25. GTWLRS was tested, and the growth estimate was < -0.25. VGCGTSGCLRPNG was tested, and the growth estimate was < -0.25. With RMHERTREASRRCCLRHQWP the growth estimate was < -0.25. With GLLCPMVYRDTSRPGRDPCM the growth estimate was < -0.25. In the case of LLNGVFGLNAASQ, the growth estimate is reported as < -0.25. WSKDLRGPQAVDAIQELRYS was tested, and the growth estimate was < -0.25. With KVKSRSVYSQRLITVILRVT the growth estimate was < -0.25. For GTSDFKMPDANRASPYAGIT, the growth estimate was < -0.25. VLLRQSSGYRFAGR was tested, and the growth estimate was < -0.25. RIRIEGRIVLDDLNSSALRY was tested, and the growth estimate was < -0.25. For LGWIGK, the growth estimate was -0.243. LPGEPNGEVAGITTVIRGNA was tested, and the growth estimate was -0.246. DWCRRSSRSVSPGSWDT was tested, and the growth estimate was < -0.25. For RVSWDHTSGAPIIDLIGL, the growth estimate was < -0.25. Work on ANEIVRTYVIDTLLDRS yielded a growth estimate of -0.245. For SLQLLTEVPGGGPHPPASAA, the growth estimate was < -0.25. With NGGAYGPVVDRHPWQGITSS the growth estimate was < -0.25. For DGFE, the growth estimate was < -0.25. CSASLWANPSLVDTRLISDV was tested, and the growth estimate was < -0.25. With QSPS the growth estimate was < -0.25. In the case of RLDPKGVIDGSVSASTWSEC, the growth estimate is reported as < -0.25. With AGENDPTAPHPRHAPW the growth estimate was < -0.25. In the case of ERFYGSDPRWKGGQKGQQGR, the growth estimate is reported as < -0.25. LWIPQVL was tested, and the growth estimate was < -0.25. In the case of TSVIDQMAYAS, the growth estimate is reported as < -0.25. For PLSDLWTTRAGTRIVVTPPP, the growth estimate was < -0.25. DCKTLWRTIPGISDILSDIK was tested, and the growth estimate was < -0.25. For RFCATSECSNVAFVA, the growth estimate was < -0.25. In the case of ILGFRDAALR, the growth estimate is reported as < -0.25. For VGSVQGN, the growth estimate was < -0.25. SHPQRFTTGLRGKLEWRYLR was tested, and the growth estimate was < -0.25. For TVNYMRIFERR, the growth estimate was < -0.25. For RSGTTARWDKS, the growth estimate was < -0.25. KGWYWKSREATEWARDSHRR was tested, and the growth estimate was < -0.25. In the case of GSPVARGP, the growth estimate is reported as < -0.25. With SVRFLISITLHIRLGPPCTP the growth estimate was < -0.25. For FQVNRRKALPVAVPVKGAIS, the growth estimate was < -0.25. With SVIWRIWTTGRGNQVVCPSS the growth estimate was < -0.25. With SGIISYAGLAR the growth estimate was < -0.25. For QGHRRIAEVRILLGVSPGYV, the growth estimate was < -0.25. For VTTEGVTGI, the growth estimate was < -0.25. With NPFFGESRQDGLTRGS the growth estimate was < -0.25. In the case of LGRGHT, the growth estimate is reported as < -0.25. For VKATFRRADWGLVACLRPGP, the growth estimate was < -0.25. Substance QNHGSI has a growth estimate of -0.246. In the case of RFTRLYTDI, the growth estimate is reported as < -0.25. With FVVDRGQ the growth estimate was < -0.25. For HVQHGHFIRFFEPAQHVHNV, the growth estimate was < -0.25. For SNRPLTWERLSCYVSGEKPG, the growth estimate was -0.0941. With IYTYDELNVQWGVCCLMPVK the growth estimate was < -0.25. With SPRSLVECNARYTRSGLDAS the growth estimate was < -0.25. For DLCGISGWSEGQVG, the growth estimate was < -0.25. STAGTGARKHERAGPVYTLG was tested, and the growth estimate was < -0.25. KVQGSRINVGLS was tested, and the growth estimate was < -0.25. In the case of RILYRSYSGLV, the growth estimate is reported as < -0.25. HLY was tested, and the growth estimate was < -0.25. With LQQLTENYRGWK the growth estimate was < -0.25. SRVSR was tested, and the growth estimate was < -0.25. For CTEVMPVNRSECIQNTGKGK, the growth estimate was < -0.25. In the case of DLGVMGW, the growth estimate is reported as < -0.25. In the case of GVKMYCLNIISQPGNQSGRL, the growth estimate is reported as < -0.25. In the case of GFGSHCDRQLIHLSSQQRGL, the growth estimate is reported as < -0.25. With RLP the growth estimate was < -0.25. With RTTRIFRSIATAMSRDTGEC the growth estimate was < -0.25. With SRKSSSLGSSFGFKIPEDEC the growth estimate was < -0.25. With SNRATGAACAAAASGGPRWA the growth estimate was < -0.25. For LSLCMKSLHVHRVCLSGDLG, the growth estimate was -0.231. In the case of SKPLLRMGDERATFDEPVAD, the growth estimate is reported as < -0.25. For GRLVGPELRS, the growth estimate was < -0.25. In the case of NGSRYNRSSIFWLQASVLWP, the growth estimate is reported as < -0.25. For KLLHDMSRVGP, the growth estimate was < -0.25. In the case of FSSA, the growth estimate is reported as < -0.25. Work on LCLRRLRSPVHSQYFKEPLR yielded a growth estimate of -0.246. With MKALVVHAGRGQLDI the growth estimate was < -0.25. HSRIQASREASHTAPTSVRL was tested, and the growth estimate was < -0.25. In the case of GRDGDEAGGVRVCLG, the growth estimate is reported as < -0.25. In the case of DRVNHGLHHCFAVLLLQRVR, the growth estimate is reported as < -0.25. In the case of NSPQSNCSS, the growth estimate is reported as < -0.25. With YPFQTRPDVLRLPAFVQGAS the growth estimate was < -0.25. For RHEGVQDRISSTGGRF, the growth estimate was < -0.25. In the case of KRYTAALNTARAVPAFY, the growth estimate is reported as < -0.25. For QIGLYELLINDLRGYEWGAL, the growth estimate was -0.198. For SSKFSSRGSYSLLGIVRNG, the growth estimate was < -0.25. With WWCFFGLLYDGFC the growth estimate was < -0.25. With RIVGETVNPWTWGEMLEKAA the growth estimate was < -0.25. With SWYVRTGASIIYTLDEVIFC the growth estimate was < -0.25. RFETAIVSSSTWFWGIVPLS was tested, and the growth estimate was < -0.25. With GTRR the growth estimate was < -0.25. With CLLQDTVTSGFWAMRQEVAK the growth estimate was < -0.25. RVWCNCPTWAMSAGSFRDSS was tested, and the growth estimate was < -0.25. WCTLLV was tested, and the growth estimate was < -0.25. With DQFTLNTIFKRESRDVHSNV the growth estimate was -0.246. For PSHTIWGCNGLPRWVCRGGG, the growth estimate was < -0.25. With FGDVSGHILQLLL the growth estimate was < -0.25. With VRPRGGSVVEKVLNSLPLAE the growth estimate was < -0.25. In the case of NRSLTCEFDCYGVASTSRKE, the growth estimate is reported as < -0.25. In the case of STSSPVVPYGSYRCRDAAWS, the growth estimate is reported as < -0.25. In the case of EKVWLASCGIFGSIRREMVR, the growth estimate is reported as < -0.25. With SRGVHVKAELPDSVQRDWEV the growth estimate was < -0.25. With PLLELGPPG the growth estimate was < -0.25. With EICGYTRRQRNLAREGPKAS the growth estimate was < -0.25. In the case of SCYGIGGQRPHNRTHRNAKT, the growth estimate is reported as < -0.25. For RRRRRLSYAPKSLGRCGQGR, the growth estimate was < -0.25. In the case of QDVACEL, the growth estimate is reported as < -0.25. In the case of LDA, the growth estimate is reported as < -0.25. RLDHSLHQFICPYDGTGSGE was tested, and the growth estimate was < -0.25. For DEC, the growth estimate was < -0.25. In the case of PEAKREGNR, the growth estimate is reported as < -0.25. CSMGKGYVPGDKVSSYLQ was tested, and the growth estimate was < -0.25. For TNPCEF, the growth estimate was < -0.25. With SSDYAESNTGRLISQRPPAP the growth estimate was < -0.25. For SYVYLGIFCSGHRDSRVCGN, the growth estimate was < -0.25. In the case of CGPSFCMSCARERAKSGGVG, the growth estimate is reported as < -0.25. PLATGEIRY was tested, and the growth estimate was < -0.25. With GSLRESDLSPTGSIRSRTSI the growth estimate was < -0.25. LQGFKLM was tested, and the growth estimate was < -0.25. IRTEE was tested, and the growth estimate was < -0.25. In the case of RYLRLSSA, the growth estimate is reported as < -0.25. With VEENIPYMRPSVSCRTVVMC the growth estimate was < -0.25. For GLERNPLKWLPDRFK, the growth estimate was < -0.25.
